1 substance from patent US7790687B2, “Treatment for neurodegeneration” (Proximagen Ltd., priority 2005, dated 2010) can be followed below.

Some results come without the dose or concentration used.

This data set has as its system ED1, OX-42 and GFAP positive cells in the rat SN. Briefly: Intranigral LPS injection, gliosis (ED1, OX-42, GFAP immunoreactivity) in the SN. The format is in vivo. Particulars: post intranigral LPS injection, injected SN.

Consider lipopolysaccharide [LPS], for which the “time of peak ED1 positive cell number” value came to 24 h and the “time of peak OX-42 positive cell number” value turned out to be 72 h. Moreover, where the note is “of the time points studied”, the “time of highest GFAP expression” value came to 120 h.
